# Assay results published in the supplement of paper PMC10849652.
# Amino acid sequences for entries named in this document (tags omitted). A change or cut given only in a name is not applied to a line headed by its entry.
# UniProt P15291: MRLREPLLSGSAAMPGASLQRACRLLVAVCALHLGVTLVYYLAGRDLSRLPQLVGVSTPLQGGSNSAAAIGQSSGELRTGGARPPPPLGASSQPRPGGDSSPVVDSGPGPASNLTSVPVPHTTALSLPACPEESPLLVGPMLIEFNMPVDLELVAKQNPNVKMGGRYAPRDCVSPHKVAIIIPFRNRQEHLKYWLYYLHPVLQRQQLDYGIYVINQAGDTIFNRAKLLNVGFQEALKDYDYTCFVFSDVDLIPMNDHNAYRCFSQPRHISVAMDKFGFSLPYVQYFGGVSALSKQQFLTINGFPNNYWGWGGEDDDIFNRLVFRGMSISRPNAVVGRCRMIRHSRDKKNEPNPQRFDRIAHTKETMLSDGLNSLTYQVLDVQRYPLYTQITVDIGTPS
# UniProt O43505: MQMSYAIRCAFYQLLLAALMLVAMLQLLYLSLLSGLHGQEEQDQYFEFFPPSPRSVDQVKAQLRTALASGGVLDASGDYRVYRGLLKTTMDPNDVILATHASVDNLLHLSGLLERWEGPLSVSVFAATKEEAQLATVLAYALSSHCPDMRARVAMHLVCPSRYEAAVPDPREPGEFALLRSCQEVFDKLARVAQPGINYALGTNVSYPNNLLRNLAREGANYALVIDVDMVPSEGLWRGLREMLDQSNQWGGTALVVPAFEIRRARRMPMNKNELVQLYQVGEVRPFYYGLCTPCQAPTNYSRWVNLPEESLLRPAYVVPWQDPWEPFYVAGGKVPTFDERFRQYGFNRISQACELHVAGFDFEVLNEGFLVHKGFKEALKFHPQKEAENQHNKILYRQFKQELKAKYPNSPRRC
# UniProt Q9NYF8, whole entry, looked up: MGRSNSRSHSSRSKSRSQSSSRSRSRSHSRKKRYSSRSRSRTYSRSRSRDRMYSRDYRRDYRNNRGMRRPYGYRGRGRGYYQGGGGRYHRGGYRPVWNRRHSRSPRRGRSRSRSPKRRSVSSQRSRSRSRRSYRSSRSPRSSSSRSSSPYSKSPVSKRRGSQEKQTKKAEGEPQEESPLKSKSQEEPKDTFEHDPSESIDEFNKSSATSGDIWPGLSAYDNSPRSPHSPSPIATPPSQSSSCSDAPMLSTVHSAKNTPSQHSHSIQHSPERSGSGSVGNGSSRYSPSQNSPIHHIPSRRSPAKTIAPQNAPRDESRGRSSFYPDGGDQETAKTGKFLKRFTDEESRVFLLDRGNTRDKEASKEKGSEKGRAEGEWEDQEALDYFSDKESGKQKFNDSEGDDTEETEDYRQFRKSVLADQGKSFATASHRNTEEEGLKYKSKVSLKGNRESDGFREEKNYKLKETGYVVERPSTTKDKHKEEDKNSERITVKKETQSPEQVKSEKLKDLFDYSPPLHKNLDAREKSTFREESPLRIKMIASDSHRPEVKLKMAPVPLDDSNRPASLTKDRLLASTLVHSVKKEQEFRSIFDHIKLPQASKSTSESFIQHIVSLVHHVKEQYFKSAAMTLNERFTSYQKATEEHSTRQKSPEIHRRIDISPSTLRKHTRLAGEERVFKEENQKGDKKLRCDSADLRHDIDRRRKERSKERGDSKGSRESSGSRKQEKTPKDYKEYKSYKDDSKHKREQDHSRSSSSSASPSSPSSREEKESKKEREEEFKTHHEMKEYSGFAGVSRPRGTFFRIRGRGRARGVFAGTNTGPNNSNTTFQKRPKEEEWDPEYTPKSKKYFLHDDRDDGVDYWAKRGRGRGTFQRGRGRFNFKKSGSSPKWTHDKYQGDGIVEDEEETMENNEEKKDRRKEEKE
# UniProt Q15059, whole entry, looked up: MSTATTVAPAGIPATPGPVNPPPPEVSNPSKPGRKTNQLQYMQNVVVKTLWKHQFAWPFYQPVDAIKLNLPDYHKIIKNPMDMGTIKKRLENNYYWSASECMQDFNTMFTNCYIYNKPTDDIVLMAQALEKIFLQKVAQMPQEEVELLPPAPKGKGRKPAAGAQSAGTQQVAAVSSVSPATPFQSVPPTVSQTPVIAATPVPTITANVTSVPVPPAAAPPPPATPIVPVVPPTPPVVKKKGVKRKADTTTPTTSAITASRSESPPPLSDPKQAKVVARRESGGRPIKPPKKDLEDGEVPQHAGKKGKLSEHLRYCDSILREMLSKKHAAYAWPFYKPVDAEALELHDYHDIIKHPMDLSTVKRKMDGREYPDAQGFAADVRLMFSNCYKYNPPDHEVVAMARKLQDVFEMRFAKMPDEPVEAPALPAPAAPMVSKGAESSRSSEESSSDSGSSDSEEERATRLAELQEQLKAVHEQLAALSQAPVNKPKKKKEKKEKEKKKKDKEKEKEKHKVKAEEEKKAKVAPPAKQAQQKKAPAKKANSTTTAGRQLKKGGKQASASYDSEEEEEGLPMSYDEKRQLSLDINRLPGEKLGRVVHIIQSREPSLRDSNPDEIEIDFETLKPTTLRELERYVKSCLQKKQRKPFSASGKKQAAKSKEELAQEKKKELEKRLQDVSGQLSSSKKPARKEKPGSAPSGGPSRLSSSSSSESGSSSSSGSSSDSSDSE
# UniProt Q9Y679: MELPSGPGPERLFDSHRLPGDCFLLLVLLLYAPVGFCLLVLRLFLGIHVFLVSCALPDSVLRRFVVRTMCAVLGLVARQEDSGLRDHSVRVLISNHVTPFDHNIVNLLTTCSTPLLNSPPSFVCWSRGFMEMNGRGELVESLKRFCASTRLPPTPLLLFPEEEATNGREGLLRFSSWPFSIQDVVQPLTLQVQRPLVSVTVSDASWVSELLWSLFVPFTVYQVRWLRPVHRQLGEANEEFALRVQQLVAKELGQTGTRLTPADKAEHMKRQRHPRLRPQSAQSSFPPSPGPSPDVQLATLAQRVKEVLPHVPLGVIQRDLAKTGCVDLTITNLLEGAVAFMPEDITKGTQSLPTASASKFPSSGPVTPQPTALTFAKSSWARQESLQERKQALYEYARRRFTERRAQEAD
# UniProt Q9NSY1, whole entry, looked up: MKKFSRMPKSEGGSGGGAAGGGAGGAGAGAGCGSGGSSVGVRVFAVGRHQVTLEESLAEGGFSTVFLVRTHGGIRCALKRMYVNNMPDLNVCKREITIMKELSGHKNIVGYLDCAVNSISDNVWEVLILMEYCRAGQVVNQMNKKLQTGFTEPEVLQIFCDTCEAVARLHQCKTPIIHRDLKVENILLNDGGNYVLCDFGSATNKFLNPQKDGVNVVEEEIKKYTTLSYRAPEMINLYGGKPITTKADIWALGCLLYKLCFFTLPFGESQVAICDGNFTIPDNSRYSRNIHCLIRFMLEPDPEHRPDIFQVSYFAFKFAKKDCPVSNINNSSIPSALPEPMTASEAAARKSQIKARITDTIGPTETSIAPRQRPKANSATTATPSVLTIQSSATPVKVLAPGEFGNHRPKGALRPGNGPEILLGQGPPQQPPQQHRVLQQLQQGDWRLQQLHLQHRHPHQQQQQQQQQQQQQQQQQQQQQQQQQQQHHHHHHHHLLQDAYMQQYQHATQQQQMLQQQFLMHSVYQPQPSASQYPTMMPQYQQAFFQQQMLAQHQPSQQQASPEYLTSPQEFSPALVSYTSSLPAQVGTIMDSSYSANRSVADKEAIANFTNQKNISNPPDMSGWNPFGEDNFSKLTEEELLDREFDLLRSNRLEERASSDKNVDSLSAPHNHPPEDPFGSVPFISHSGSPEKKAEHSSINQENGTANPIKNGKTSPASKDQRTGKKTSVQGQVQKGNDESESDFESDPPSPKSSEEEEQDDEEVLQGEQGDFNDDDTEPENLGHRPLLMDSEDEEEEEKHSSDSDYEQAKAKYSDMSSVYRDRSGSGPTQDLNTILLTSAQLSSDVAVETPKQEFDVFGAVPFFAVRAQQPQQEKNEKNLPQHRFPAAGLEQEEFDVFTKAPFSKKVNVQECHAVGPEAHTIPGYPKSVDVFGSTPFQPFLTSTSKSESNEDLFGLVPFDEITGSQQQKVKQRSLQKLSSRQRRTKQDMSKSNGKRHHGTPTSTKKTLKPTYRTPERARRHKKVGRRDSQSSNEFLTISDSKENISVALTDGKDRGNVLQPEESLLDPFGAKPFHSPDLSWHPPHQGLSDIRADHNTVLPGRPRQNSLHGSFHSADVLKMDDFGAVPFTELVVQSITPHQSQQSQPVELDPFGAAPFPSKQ
# The other results are listed elsewhere or left out. Residues, ends and D or L forms follow the SMILES beside them. *: point of attachment. Cbz = O=C(OCc1ccccc1)*
# What was measured:
# Experiment in all cases: log2 fold change, soluble protein after heating vs DMSO (PISA); higher = thermal stabilisation; K562 cells, 10 uM, 30 min; active = over 0.2 and 3.5 SD of the protein, either way, in both replicates (recomputed)
# IRAK-1-4 Inhibitor I = compound: C1COCCN1CCN2C3=CC=CC=C3N=C2NC(=O)C4=CC(=CC=C4)[N+](=O)[O-] [IRAK-1-4 Inhibitor I]
# In short: (§1)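 Values are thermal stability changes relative to control samples and are taken from duplicates. They are stated as log2 fold changes. Before quantification by TMTpro 16plex LC-MS/MS with equalised channel sums, K562 cells at 2×10^6 cells/mL were treated with 10 μM compound for 30 min, heated in aliquots for 3 min across 48°C-58°C, pooled, extracted in PBS with 0.5% NP-40 at 4°C, and centrifuged at 21,000xg for 90 min to give the soluble supernatant.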
# ibrutinib = compound: C=CC(=O)N1CCC[C@@H](n2nc(-c3ccc(Oc4ccccc4)cc3)c3c(N)ncnc32)C1 [ibrutinib]
# In short: as §1
# [1] = compound: CC(=O)c1cnc2ccc(-c3cc(Cl)c(O)c(Cl)c3)nc2c1N[C@H]1CC[C@H](CN(C)C)CC1
# In short: as §1
# ralimetinib = compound: CC(C)(C)Cn1c(N)nc2ccc(-c3[nH]c(C(C)(C)C)nc3-c3ccc(F)cc3)nc21 [ralimetinib]
# In short: as §1
# [2] = compound: CC(C)(O)CC(=O)NCCn1ccc2ncnc(Nc3ccc(Oc4cccc(C(F)(F)F)c4)c(Cl)c3)c21
# In short: as §1
# [3] = compound: CC(C)C1=C2N=C(C=C(N2N=C1)NCC3=CC=CC=C3)NCCCCCCN
# In short: as §1
# [4] = compound: CC(C)C[C@@H](C=O)NC(=O)[C@H](CC(C)C)NC(=O)[C@H](CC(C)C)NC(=O)OCc1ccccc1
# In short: as §1
# pinometostat = compound: CC(C)N(C[C@H]1O[C@@H](n2cnc3c(N)ncnc32)[C@H](O)[C@@H]1O)[C@H]1C[C@@H](CCc2nc3cc(C(C)(C)C)ccc3[nH]2)C1 [pinometostat]
# In short: as §1
# [5] = compound: CC1=C(C2=C(C=C1)C(=O)C3=CC=CC=C3N2CCCN)C
# In short: as §1
# [6] = compound: CC1=C(C=C(C=C1)NC(=O)C2=CC(=CC=C2)C(C)(C)C#N)NC3=CC4=C(C=C3)N=CN(C4=O)C
# In short: as §1
# [7] = compound: CC1=C(C=C(C=C1)NC(=O)C2=CC(=CC=C2)N(C)C)NC(=O)C3=CC=C(C=C3)O
# In short: as §1
# [8] = compound: CC1=CC=C(C=C1)SC2=C3C=C(SC3=CN=C2)C(=O)N
# In short: as §1
# [9] = compound: CC1=NC(=CC=C1)C2=C(N=C(N2)C(C)(C)C)C3=CC4=NC=CN=C4C=C3
# In short: as §1
# Nexturastat A = compound: CCCCN(Cc1ccc(C(=O)NO)cc1)C(=O)Nc1ccccc1 [Nexturastat A]
# In short: as §1
# vemurafenib = compound: CCCS(=O)(=O)Nc1ccc(F)c(C(=O)c2c[nH]c3ncc(-c4ccc(Cl)cc4)cc23)c1F [vemurafenib]
# In short: as §1
# [10] = compound: CCCS(=O)(=O)Nc1ccc(F)c(C(=O)c2c[nH]c3ncc(Cl)cc23)c1F
# In short: as §1
# [11] = compound: CCCc1cc(C)[nH]c(=O)c1CNC(=O)c1cc(-c2ccnc(N3CCN(C)CC3)c2)cc2c1cnn2C(C)C
# In short: as §1
# givinostat = compound: CCN(CC)Cc1ccc2cc(COC(=O)Nc3ccc(C(=O)NO)cc3)ccc2c1 [givinostat]
# In short: as §1
# barasertib = compound: CCN(CCCOc1ccc2c(Nc3cc(CC(=O)Nc4cccc(F)c4)[nH]n3)ncnc2c1)CCOP(=O)(O)O [barasertib]
# In short: as §1
# [12] = compound: CC1=C(C(CC(=O)N1)C2=CC=C(C=C2)C(F)(F)F)C(=O)NC3=C(C=C4C(=C3)C=NN4)F
# In short: as §1
Target,log2 fold change (IRAK-1-4 Inhibitor I),log2 fold change (ibrutinib),log2 fold change [1],log2 fold change (ralimetinib),log2 fold change [2],log2 fold change [3],log2 fold change [4],log2 fold change (pinometostat),log2 fold change [5],log2 fold change [6],log2 fold change [7],log2 fold change [8],log2 fold change [9],log2 fold change (Nexturastat A),log2 fold change (vemurafenib),log2 fold change [10],log2 fold change [11],log2 fold change (givinostat),log2 fold change (barasertib),log2 fold change [12]
B4GALT1 (UniProt P15291),inactive: 0.034,inactive: -0.057,inactive: -0.019,inactive: 0.094,inactive: 0.094,active: -0.294,inactive: 0.017,inactive: -0.051,inactive: -0.03,inactive: -0.009,inactive: -0.027,inactive: 0.002,inactive: -0.05,inactive: -0.022,inactive: 0.035,inactive: 0.012,inactive: -0.044,inactive: -0.113,inactive: -0.01,
B4GAT1 (UniProt O43505),inactive: 0.015,inactive: 0.15,inactive: 0.078,inactive: -0.012,inactive: -0.018,inactive: -0.12,inactive: -0.001,inactive: 0.018,inactive: 0.016,,inactive: -0.004,inactive: -0.028,inactive: 0.07,inactive: 0.032,inactive: -0.069,inactive: -0.046,,inactive: -0.018,inactive: -0.03,inactive: -0.008
BCLAF1 (UniProt Q9NYF8),inactive: -0.265,inactive: 0.016,active: -0.503,inactive: 0.124,inactive: 0.094,inactive: -0.353,inactive: -0.027,inactive: -0.039,inactive: -0.076,inactive: 0.012,inactive: -0.102,inactive: 0.004,inactive: 0.128,inactive: 0.098,inactive: 0.225,inactive: 0.097,inactive: 0.009,inactive: 0.137,inactive: -0.071,
ATR (UniProt Q13535),inactive: 0.093,inactive: 0.031,inactive: 0.021,inactive: -0.03,inactive: -0.077,inactive: 0.046,inactive: 0.037,inactive: 0.101,inactive: 0.109,inactive: -0.012,inactive: -0.022,inactive: 0.013,inactive: -0.126,inactive: 0.005,inactive: 0.035,inactive: -0.001,inactive: 0.015,inactive: 0.039,inactive: 0.037,
BRD3 (UniProt Q15059),inactive: 0.163,inactive: 0.037,inactive: -0.032,inactive: -0.136,,inactive: 0.152,inactive: -0.065,inactive: 0.143,inactive: 0.162,inactive: 0.261,inactive: 0.008,inactive: 0.035,inactive: -0.003,,inactive: 0.198,inactive: -0.048,inactive: -0.017,active: -0.842,inactive: -0.339,
AUP1 (UniProt Q9Y679),inactive: 0.035,inactive: -0.026,inactive: 0.003,inactive: 0.007,inactive: -0.164,active: -0.482,inactive: -0.033,inactive: 0.011,inactive: 0.08,inactive: 0.054,inactive: 0.021,inactive: 0.009,inactive: -0.005,inactive: -0.048,inactive: 0.121,inactive: 0.058,inactive: -0.056,inactive: 0.028,inactive: 0.06,
BMP2K (UniProt Q9NSY1),inactive: 0.003,inactive: 0.071,active: 0.559,inactive: 0.058,inactive: -0.028,inactive: -0.027,inactive: 0.085,inactive: -0.008,inactive: -0.009,inactive: 0.01,inactive: 0.033,inactive: -0.017,inactive: -0.011,inactive: 0.126,inactive: 0.011,inactive: 0.01,inactive: -0.04,inactive: 0.007,inactive: -0.014,
B4GALT7 (UniProt Q9UBV7),inactive: -0.046,inactive: 0.131,inactive: 0.069,inactive: 0.088,inactive: -0.014,inactive: -0.012,inactive: -0.004,inactive: -0.033,inactive: 0.066,inactive: -0.01,inactive: -0.016,inactive: 0.044,inactive: 0.047,inactive: -0.151,inactive: 0.027,inactive: -0.079,inactive: -0.038,inactive: -0.041,inactive: 0.012,
